Data published in article PMC12469161, “Anti-cancer compound screening identifies Aurora Kinase A inhibition as a means to favor CRISPR/Cas9 gene correction over knock-out” (PLOS One, 2025).

Experiments:
HEK293T-eGFP cells = experiment: MTT cytotoxicity assay, 72 hours; format: cell-based; settings: 3 days of incubation
Method: Cells were cultured for 16–24 hours under standard culturing conditions (5% CO2, 37 °C). […] All dose ranges were added in duplicate, followed by 72 hours of incubation. Cell viability was determined using a tetrazolium based metabolic activity assay. Briefly, 5 µL of 3-(4.5-dimethylthiazol-2-yl)-2,5-diphenyltetrazolium bromide (MTT) solution (5 mg/mL MTT in sterile PBS) was added per well, and the microplates were incubated for 4 hours at 37°C and 5% CO2 in a cell culture incubator. Next, 40 µL of 10% SDS/0.01 M HCl was added per well, and the microplates were incubated for 24–72 hours at 37°C and 5% CO2 in a cell culture incubator. Subsequently the absorbance at 570 nm and background absorbance at 720 nm were measured using the Spectramax i3x (Molecular Devices, San Jose, USA). Subsequently, the absorbance values at 720 nm were subtracted from the absorbance values at 570 nm, and the corresponding values were used to plot dose-response curves.
The data was normalized to the DMSO-treated cells (defined as 100% viability) and the empty controls (defined as 0% viability).

[1] = system: eGFP locus in HEK293T-eGFP cells (HDR vs NHEJ); experiment: CRISPR gene-editing outcome (eGFP to BFP conversion, flow cytometry) with CRISPR-Cas9 LNP; format: cell-based; settings: up to three dosages based on IC50, single measurements
Method: Compounds were assessed in three dosages to assess the effects on gene-editing efficacy. […] Cells were incubated with these compounds for 24 hours prior to LNP addition. LNP were added to all wells at a final concentration of 20 nM SpCas9 to achieve robust genome editing. After 24 hours of co-incubation, medium was refreshed and cells were transferred to a 48 well plate for further culturing. Six days after adding compounds, cells were processed for flow cytometric analysis of the gene knock-out and gene-correction efficiencies. Briefly, a ssDNA template was used carrying two nucleotide mutations to convert the eGFP sequence to that of a blue fluorescent protein (BFP), as well as mutating the PAM sequence to ensure robust HDR. The sgRNA spacer sequence was 5’-[…]-3’, and the HDR template sequence was 5’-[…]-3’.
Flow cytometry using the BD FACS Canto II (Becton Dickinson) was used to determine cells undergoing NHEJ (eGFP and BFP negative population) and HDR (eGFP negative, BFP positive). […]
The percentage of HDR relative to total gene editing in a given cell population (hereafter named Relative HDR (% of edited cells) was calculated by dividing the absolute HDR population by the sum of gene-edited cells found in the BFP+ and eGFP- gates. Absolute HDR (% of all cells) and Absolute NHEJ (% of all cells) were analyzed where appropriate. The gating strategy is given in S1 Fig in S1 File.

O=C(CCCCCCC(=O)Nc1ccccc1)NO [Vorinostat]
IC50 (HEK293T-eGFP cells): 3.34 µM
effect on relative HDR in the compound screen [1]: did not show the same effect
